PubChem BioAssay AID720505 – Drosophila RNAi Screening Center | 2013

- Screen: 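Genes needed for store-operated calcium entry in fly cells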 (primary screen)
- System: Drosophila S2R+ cells
- Reagents: long dsRNA against Drosophila genes
- Treatment: thapsigargin (2 µM) in calcium-free buffer to empty internal stores, then 2 mM calcium added back
- Read-out: 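Stores emptied by 2 µM thapsigargin without calcium, then 2 mM calcium re-added; fluo-4 fluorescence followed by FLIPR in 384-well plates, per-well averaged endpoint, raw; two screen passes, some wells retested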
- Direction: calcium signal and retest calcium signal: higher = more calcium entry after store depletion
- Call rule: 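Knock-downs counted as hits when calcium entry dropped relative to STIM1 positive and Rho1 negative controls present on each plate; roughly 1500 genes called, with reductions of differing size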
- Calls: active = called as lowering calcium entry; inactive = not called
In all, the deposit lists about 20,000 reagents; below is an unselected part of those that have a named target and a result. Of all reagents, about 2,100 (10%) got an active call. 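Raw plate signals without normalisation; calls rest on control-based scores that were not deposited; replicate 2 separates called from uncalled poorly.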 A plus sign joins genes that one reagent is predicted to hit. The record does not give: the amount of reagent, the time to read-out.

CG31872 [DRSC02568] gave calcium signal, replicate 1 = 193; calcium signal, replicate 2 = 140; inactive.
For CG31872 [DRSC02572], the entry reads calcium signal, replicate 1 = 189; calcium signal, replicate 2 = 159; inactive.
Shab [DRSC08643] scored calcium signal, replicate 1 = 86.9; calcium signal, replicate 2 = 105; inactive.
Knock-down of Shab [DRSC08699] resulted in: calcium signal, replicate 1 = 131; calcium signal, replicate 2 = 79.6; inactive.
For Pld3 [DRSC03167], the values are calcium signal, replicate 1 = 91.8; calcium signal, replicate 2 = 78; inactive.
For Ald1 [DRSC14109], the values are calcium signal, replicate 1 = 79.5; calcium signal, replicate 2 = 78.2; inactive.
Depletion of CG17803 [DRSC15275] gave: calcium signal, replicate 1 = 146; calcium signal, replicate 2 = 113; retest calcium signal, replicate 1 = 10557; retest calcium signal, replicate 2 = 161; inactive.
With knock-down of CG17803 [DRSC22811], the screen gave calcium signal, replicate 1 = 77.4; calcium signal, replicate 2 = 113; inactive.
After knock-down of l(2)05714 [DRSC03118] the results were calcium signal, replicate 1 = 77.1; calcium signal, replicate 2 = 136; inactive.
Knock-down of CG8206 [DRSC20093] gave: calcium signal, replicate 1 = 107; calcium signal, replicate 2 = 138; inactive.
Depletion of CG4572 [DRSC15603] resulted in: calcium signal, replicate 1 = 149; calcium signal, replicate 2 = 278; inactive.
After knock-down of CG5359 [DRSC15780], the screen gave calcium signal, replicate 1 = 93.1; calcium signal, replicate 2 = 84.5; inactive.
kmg [DRSC02829] scored calcium signal, replicate 1 = 67.4; calcium signal, replicate 2 = 88.8; active.
CG31546 [DRSC12317] gave calcium signal, replicate 1 = 140; calcium signal, replicate 2 = 139; inactive.
Silencing of CheB38a [DRSC03205] gave: calcium signal, replicate 1 = 190; calcium signal, replicate 2 = 75.5; retest calcium signal, replicate 1 = 133; retest calcium signal, replicate 2 = 136; inactive.
Against CG15820 [DRSC08480] the deposit lists calcium signal, replicate 1 = 121; calcium signal, replicate 2 = 120; inactive.
Knock-down of CG32444 [DRSC11677] gave: calcium signal, replicate 1 = 127; calcium signal, replicate 2 = 96.4; inactive.
Silencing of CG6195 [DRSC15989] resulted in: calcium signal, replicate 1 = 245; calcium signal, replicate 2 = 201; inactive.
With knock-down of D12 [DRSC03311], the screen gave calcium signal, replicate 1 = 119; calcium signal, replicate 2 = 292; inactive.
CR43670 + CR43671 + CR43669 [DRSC01554] gave calcium signal, replicate 1 = 115; calcium signal, replicate 2 = 85.3; inactive.
CR43670 + CR43671 + CR43669 [DRSC01556] showed calcium signal, replicate 1 = 126; calcium signal, replicate 2 = 99.4; inactive.
For l(3)76BDm [DRSC11047], the entry reads calcium signal, replicate 1 = 108; calcium signal, replicate 2 = 96.9; inactive.
For CG5033 [DRSC07410] the deposit lists calcium signal, replicate 1 = 155; calcium signal, replicate 2 = 132; inactive.
After knock-down of loh [DRSC01122], the record shows calcium signal, replicate 1 = 71.2; calcium signal, replicate 2 = 215; active.
Against loh [DRSC02943] the deposit lists calcium signal, replicate 1 = 196; calcium signal, replicate 2 = 167; inactive.
With knock-down of BBS5 [DRSC12168], the screen gave calcium signal, replicate 1 = 107; calcium signal, replicate 2 = 132; inactive.
Depletion of MagR [DRSC20092] gave: calcium signal, replicate 1 = 92.3; calcium signal, replicate 2 = 121; inactive.
Knock-down of aus [DRSC15157] came out at: calcium signal, replicate 1 = 216; calcium signal, replicate 2 = 291; inactive.
